# Experimental data from article PMC5996148.
# “And” between values parts separate entries of the source, which are not always exact repeats. Equal values may be shown once. This is one part of the list. For some of these results: Construct or isoform of the protein are uncertain.
# Legend:
# Assay in all cases: protein microarray (ProtoArray v5.0), streptavidin-Alexa Fluor 647
# Details in all cases: 3'-biotin; 20 mM Tris (pH 7.5), 5 mM MgCl2, 100 mM KCl, 0.1% Tween-20, A/T-rich and random oligonucleotide blockers; temperature not stated; high values mean tight binding
# MLX (human) = test system: MLX (human)
# MMP12 (human) = test system: MMP12 (human)
# MOBKL1A = biological target: T1, MOBKL1A (UniProt Q7L9L4)
# T1 sequence: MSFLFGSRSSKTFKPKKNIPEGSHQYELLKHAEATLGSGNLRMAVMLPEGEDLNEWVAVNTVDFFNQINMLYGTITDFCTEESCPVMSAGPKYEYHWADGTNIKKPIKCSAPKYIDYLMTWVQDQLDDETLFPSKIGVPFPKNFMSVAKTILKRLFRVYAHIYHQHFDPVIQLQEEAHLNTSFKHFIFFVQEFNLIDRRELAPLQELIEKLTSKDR
# MOGAT3 (human) = test system: MOGAT3 (human)
# MORF4L1 = MORF4L1 (UniProt Q9UBU8)
# MPHOSPH6 (human) = test system: MPHOSPH6 (human)
# MR1 (human) = test system: MR1 (human)
# MRPL43 (human) = test system: MRPL43 (human)
# MRPS16 (human) = test system: MRPS16 (human)
# MRPS6 = MRPS6 (UniProt P82932)
sequence,measurement,setting,value
GGTGACAGGGGTATGGGGAGGGG [G4-2 biotinylated (Ct1)],binding signal,MLX (human),-0.401 z-score and -0.404 z-score
same,binding signal,MMP12 (human),-0.386 z-score
same,binding signal,MOBKL1A,-0.382 z-score
same,binding signal,MOGAT3 (human),-0.401 z-score
same,binding signal,MORF4L1,3.09 z-score
same,binding signal,MPHOSPH6 (human),-0.371 z-score
same,binding signal,MR1 (human),-0.372 z-score
same,binding signal,MRPL43 (human),-0.363 z-score
same,binding signal,MRPS16 (human),-0.373 z-score
same,binding signal,MRPS6,5.37 z-score

# Two entries from above, tab-delimited:
sequence	measurement	setting	value
GGTGACAGGGGTATGGGGAGGGG [G4-2 biotinylated (Ct1)]	binding signal	MR1 (human)	-0.372 z-score
same	binding signal	MRPL43 (human)	-0.363 z-score
